{"source": "PubChem BioAssay AID493014", "about": "(National Center for Advancing Translational Sciences (NCATS), 2011)", "note": "Among all 340,000 compounds or so, about 170 (0.05%) were called active. The shares of active, inactive and inconclusive entries below differ from those in the screen. Calls come from the whole dose curve; as a rule, active = well fitted inhibition curve with a large enough effect in the signal ratio, with a control signal flat (not every such curve was filed as active); inconclusive = small, poorly fitted or top-dose-only effect, or effect the other way, or a change in a side signal; inactive = flat fitted curve, though single readings scatter; the % refers to the signal ratio. Potencies beside an inconclusive call are fits to weak or partial responses and may not hold up. Potency is the fitted concentration of half-maximal effect.", "data": [{"assay": "qHTS Assay to Find Inhibitors of Chronic Active B-Cell Receptor Signaling;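 for activity change, negative = inhibition: plate controls were basal doxycycline-induced cells for no effect and cells given 10 µM MG132 for full effect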", "details": "ABC-DLBCL IkBa-CBG/CBR reporter, luminescence ratio (green luciferase fused to IkBa over red control in TMD8 lymphoma cells), 4 h; activity change, negative = inhibition: at 46.1 µM (top of the series)", "how_it_was_run": "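Concentration-response series (up to 46 uM) were applied to TMD8 dual-reporter cells for 4 h at 37C with doxycycline. Green/red ratio, after filter-overlap correction, defined %Activity; red signal alone was normalised to basal cells and zero luminescence.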", "values": [{"smiles": "O=C(O)CCCc1ccc2ccc3cccc4ccc1c2c34", "activity change, negative = inhibition": "inconclusive: 25.6%"}, {"smiles": "c1cc(CCCc2ccncc2)ccn1", "activity change, negative = inhibition": "inactive"}, {"smiles": "Cc1cccc2c1ncc1c(=O)n(-c3ccccc3)[nH]c12", "Potency": "inconclusive: 11.2 µM [falling, partial curve, poor fit]"}, {"smiles": "COc1ccc(/C=N/NC(=O)c2ccc3c(c2)OCO3)cc1", "Potency": "inconclusive: 17.8 µM [falling, partial curve]"}, {"smiles": "Fc1ccc(/C=C2\\CCCC3=C2Nc2ncnn2C3c2ccc(F)cc2)cc1", "note": "(stereo unspecified)", "activity change, negative = inhibition": "inconclusive: 29.1%"}, {"smiles": "O=C(OCc1ccc(O)cc1)c1c(-c2ccsc2)oc2ccc(N3CCOCC3)cc12", "Potency": "inconclusive: 3.16 µM [falling, full curve, poor fit]"}, {"smiles": "Oc1ccc(/C=N/N(c2ccccc2)c2ccccc2)cc1O", "activity change, negative = inhibition": "inactive"}, {"smiles": "CC(C(=O)N(C)C1CCS(=O)(=O)C1)N1C(=O)/C(=C/c2ccc(F)cc2)SC1=S", "note": "(stereo unspecified)", "Potency": "inconclusive: 35.5 µM [falling, single point]"}, {"smiles": "CCOc1ccc(NC(=O)CSC2=Nc3ccccc3C3=NC(CC(=O)NCc4cccs4)C(=O)N23)cc1", "note": "(stereo unspecified)", "activity change, negative = inhibition": "inactive"}, {"smiles": "O=C(OCC(=O)N1CCCC1)c1cncc(Br)c1", "activity change, negative = inhibition": "inconclusive: 12.6%"}, {"smiles": "CCN(CC)CCCOC(=O)C(c1ccccc1)c1ccccc1", "activity change, negative = inhibition": "inconclusive: -18.9%"}, {"smiles": "COc1ccc(/C=C/C(=O)OCC(=O)c2c(C)[nH]c3ccccc23)cc1OC", "activity change, negative = inhibition": "inconclusive: 2.82%"}, {"smiles": "CN(C)CCCNS(=O)(=O)c1cc(Cl)ccc1Cl", "activity change, negative = inhibition": "inactive"}, {"smiles": "CC1CCC/C(=C\\Nc2ccc(O)cc2)C1=O", "note": "(stereo unspecified)", "activity change, negative = inhibition": "inactive"}, {"smiles": "COc1ccc(OC)c(S(=O)(=O)N2CCCCC2C(=O)O)c1", "note": "(stereo unspecified)", "activity change, negative = inhibition": "inconclusive: -10.6%"}, {"smiles": "O=c1c2ccccc2n2c(=S)[nH]nc2n1-c1ccccc1", "activity change, negative = inhibition": "inconclusive: 4.2%"}, {"smiles": "Cc1nc(SCc2ccccc2)[nH]c(=O)c1CC(=O)OCC(C)C", "activity change, negative = inhibition": "inactive"}, {"smiles": "Cc1ccc(C(C)C)c(OCc2ccc(C(=O)N/N=C/c3cccc(O)c3O)cc2)c1", "activity change, negative = inhibition": "inactive"}, {"smiles": "CCn1ncc(/C=C/C(=O)Nc2c(C)nn(Cc3ccc(Cl)cc3Cl)c2C)c1C", "activity change, negative = inhibition": "inconclusive: -0.116%"}, {"smiles": "CCC(Sc1nc2c(sc3ccccc32)c(=O)n1CCc1ccc(OC)c(OC)c1)C(=O)N(CC)CC", "note": "(stereo unspecified)", "activity change, negative = inhibition": "inconclusive: -1.78%"}, {"smiles": "COc1ccc(NC(=O)CSc2nnc(Cn3nnc4ccccc43)n2C)cc1", "activity change, negative = inhibition": "inconclusive: -13.9%"}, {"smiles": "O=c1nc(-c2ccccc2)cn[nH]1", "activity change, negative = inhibition": "inconclusive: 8.58%"}, {"smiles": "COC(=O)c1ccccc1NC(=O)c1noc2c1CCC2", "activity change, negative = inhibition": "inactive"}, {"smiles": "O=C(NC1CCCCC1)c1ccc2c(c1)OCCO2", "Potency": "inconclusive: 35.5 µM [rising, single point]"}, {"smiles": "CC[C@]12c3[nH]c4ccc(Cl)cc4c3CCN1C(=O)[C@@H](CC(=O)NCCc1ccccn1)C[C@@H]2C(=O)N1CCN(C(=O)C2CC2)CC1", "activity change, negative = inhibition": "inconclusive: 2.81%"}, {"smiles": "CC(C)CC(=O)n1sc(NC(=O)c2ccccc2)nc1=O", "Potency": "inconclusive: 7.94 µM [falling, partial curve]"}, {"smiles": "CC(OC(=O)c1ccc(Cl)c([N+](=O)[O-])c1)C(=O)N1CCN(Cc2ccccc2)CC1", "note": "(stereo unspecified)", "activity change, negative = inhibition": "inconclusive: 1.32%"}, {"smiles": "Cc1cccc(OCCSc2nncn2C)c1", "Potency": "inconclusive: 0.708 µM [falling, partial curve, poor fit]"}, {"smiles": "CCCCCN(C(=O)CCC(=O)OC(C)C(=O)NC1CCCCC1)c1c(N)n(CCCC)c(=O)[nH]c1=O", "note": "(stereo unspecified)", "activity change, negative = inhibition": "inconclusive: -0.115%"}, {"smiles": "O=C1NCC(c2ccccc2)C1C(=O)N/N=C\\c1ccc(-c2cccc(Cl)c2Cl)o1", "note": "(stereo unspecified)", "Potency": "inconclusive: 20.6 µM [rising, single point]"}, {"smiles": "Cc1nn(C(C)(C)C)c(C)c1/C=N/OC(=O)Nc1ccc(Cl)c(Cl)c1", "activity change, negative = inhibition": "inactive"}, {"smiles": "COc1ccc(S(=O)(=O)Nc2nccs2)cc1OC", "activity change, negative = inhibition": "inconclusive: 12.6%"}, {"smiles": "CCCc1cc(=O)oc2cc(C)cc(OCc3nn[nH]n3)c12", "activity change, negative = inhibition": "inactive"}, {"smiles": "O=[N+]([O-])c1ccc(N2N=C(c3ccccc3)CC2c2ccccc2O)cc1", "note": "(stereo unspecified)", "activity change, negative = inhibition": "inconclusive: 2.22%"}, {"smiles": "CC1CC(C)CN(CCCOc2ccccc2[N+](=O)[O-])C1", "note": "(stereo unspecified)", "activity change, negative = inhibition": "inactive"}, {"smiles": "Cc1sc2nc(CSCC(=O)NC3(C#N)CCCCC3)[nH]c(=O)c2c1C", "activity change, negative = inhibition": "inactive"}, {"smiles": "CCOc1ccc(-c2nc(C#N)c(N3CCN(C)CC3)o2)cc1", "activity change, negative = inhibition": "inconclusive: 14.9%"}, {"smiles": "CCOc1ccc(NS(=O)(=O)CC23CCC(CC2=O)C3(C)C)cc1", "note": "(stereo unspecified)", "activity change, negative = inhibition": "inconclusive: 2.11%"}, {"smiles": "O=C(Nc1cccnc1)c1cc2c(s1)-c1ccccc1OC2", "activity change, negative = inhibition": "inactive"}, {"smiles": "O=C(N/N=C/c1coc2ccccc2c1=O)c1cc2ccccc2o1", "activity change, negative = inhibition": "inconclusive: -19.7%"}, {"smiles": "CN(C)c1cc[n+](CC(=O)c2ccc(OC(F)F)cc2)cc1", "activity change, negative = inhibition": "inconclusive: 8.6%"}, {"smiles": "CSc1ncccc1C(=O)NC1CCCc2c1cnn2-c1ccc(C)c(C)c1", "note": "(stereo unspecified)", "activity change, negative = inhibition": "inactive"}, {"smiles": "COc1ccc2oc3cc(C)[n+]([O-])c(-c4ccc(C)cc4)c3c2c1", "activity change, negative = inhibition": "inactive"}, {"smiles": "CCN(CC)C(=O)C12C(=O)Oc3ccccc3C1C2(C)C(=O)c1ccc(F)cc1", "note": "(stereo unspecified)", "Potency": "inconclusive: 0.562 µM [falling, full curve, poor fit]"}, {"smiles": "CCOC(=O)N1CCN(C(=O)CS(=O)Cc2nc(-c3cccc(C)c3)oc2C)CC1", "note": "(stereo unspecified)", "Potency": "inconclusive: 1.84 µM [rising, partial curve, poor fit]"}, {"smiles": "Cc1ccc2sc(N(Cc3cccnc3)C(=O)CCS(=O)(=O)c3ccccc3)nc2c1C", "Potency": "inconclusive: 0.631 µM [falling, full curve, poor fit]"}, {"smiles": "Fc1ccccc1NC(=S)N(CCN1CCCCCC1)Cc1cccs1", "activity change, negative = inhibition": "inconclusive: 23.5%"}, {"smiles": "Cn1cc(SCC(=O)O)c2ccccc21", "Potency": "inconclusive: 0.00461 µM [falling, full curve, poor fit]"}, {"smiles": "O=C(Nc1cc(C(F)(F)F)ccc1Cl)C(Sc1cccc[n+]1[O-])c1ccccc1", "note": "(stereo unspecified)", "Potency": "inconclusive: 29.1 µM [cytotoxic, single point]"}, {"smiles": "Cc1cc(NC(=O)COC(=O)c2cccc(S(=O)(=O)N(C)C3CCCCC3)c2)no1", "activity change, negative = inhibition": "inconclusive: -1.96%"}, {"smiles": "CCN(CC)C(=O)c1sc2c(c1C)c(=O)n(Cc1ccccc1)c(=O)n2Cc1ccccc1C", "Potency": "inconclusive: 31.6 µM [rising, single point]"}]}]}
